Here are results for two molecules from article PMC4678830.

For test [1], the target named is SNM1A core MBL-β-CASP domain (aa 676–1040) (human) (UniProt Q6PJP8). The test can be described thus: SEC; Superdex S200 HR 16/60 in GF buffer (10 mM HEPES, pH 7.5, 300 mM NaCl, 0.5 mM TCEP, 5% glycerol), 1.2 ml/min; last step of the purification; both purified.
Test [2] has as its target SNM1B core MBL-β-CASP domain (aa 1–335), S330F (human) (UniProt Q9H816). The test is described as above.

No constants are given. Whether binding was seen depends on the method and setting.

B1: SNM1A core MBL-β-CASP domain (aa 676–1040) (domain or fragment, UniProt Q6PJP8 676-1040)
chain: SMAHGGLQRGNKKIPESSNVGGSRKKTCPFYKKIPGTGFTVDAFQYGVVEGCTAYFLTHFHSDHYAGLSKHFTFPVYCSEITGNLLKNKLHVQEQYIHPLPLDTECIVNGVKVVLLDANHCPGAVMILFYLPNGTVILHTGDFRADPSMERSLLADQKVHMLYLDTTYCSPEYTFPSQQEVIRFAINTAFEAVTLNPHALVVCGTYSIGKEKVFLAIADVLGSKVGMSQEKYKTLQCLNIPEINSLITTDMCSSLVHLLPMMQINFKGLQSHLKKCGGKYNQILAFRPTGWTHSNKFTRIADVIPQTKGNISIYGIPYSEHSSYLEMKRFVQWLKPQKIIPTVNVGTWKSRSTMEKYFREWKLEAGY
With B1, the binding result in test [1] is reported as “no binding”.

B2: SNM1B core MBL-β-CASP domain (aa 1–335), S330F (domain or fragment, UniProt Q9H816 1-335)
chain: SMMNGVLIPHTPIAVDFWSLRRAGTARLFFLSHMHSDHTVGLSSTWARPLYCSPITAHLLHRHLQVSKQWIQALEVGESHVLPLDEIGQETMTVTLLDANHCPGSVMFLFEGYFGTILYTGDFRYTPSMLKEPALTLGKQIHTLYLDNTNCNPALVLPSRQEAAHQIVQLIRKHPQHNIKIGLYSLGKESLLEQLALEFQTWVVLSPRRLELVQLLGLADVFTVEEKAGRIHAVDHMEICHSNMLRWNQTHPTIAILPTSRKIHSSHPDIHVIPYSDHSSYSELRAFVAALKPCQVVPIVSRRPCGGFQDSLSPRISVPLIPDSVQQYMSSFSRKPS
Consider B2, for which the binding result in test [2] is recorded as “no binding”.
